Hit rate of the full screen: of about 340,000 compounds, about 170 (0.05%) were called active. Inconclusive means that the source gave no clear call. Such entries were picked first, then a sample of the others. Calls follow the shape of the dose curve; as a rule, active = well fitted inhibition curve with a large enough effect in the signal ratio, with a control signal flat (not every such curve was filed as active); inconclusive = small, poorly fitted or top-dose-only effect, or effect the other way, or a change in a side signal; inactive = flat fitted curve, though single readings scatter; the % refers to the signal ratio. Potencies beside an inconclusive call are fits to weak or partial responses and may not hold up.
Experiment: qHTS Assay to Find Inhibitors of Chronic Active B-Cell Receptor Signaling;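 as to activity change, negative = inhibition: plate controls were basal doxycycline-induced cells for no effect and cells given 10 µM MG132 for full effect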
Conditions: ABC-DLBCL IkBa-CBG/CBR reporter, luminescence ratio (green luciferase fused to IkBa over red control in TMD8 lymphoma cells), 4 h; activity change, negative = inhibition: at 46.1 µM (top of the series) unless noted
How it was run: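 Doxycycline induced both beetle luciferases in TMD8 lymphoma cells; IKK-driven degradation limits the IkappaBalpha-fused green signal, while red luminescence normalises for cell number and nonspecific effects. Compounds tested up to 46 uM, 4 hrs.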
Potency is read from the fitted curve at half-maximal effect.

Structure (SMILES) | activity change, negative = inhibition | Potency
Cc1ccc(-n2ncc3c(N(C)Cc4ccccc4)ncnc32)cc1 | inconclusive: 13.4% | –
CCCOc1ccc(-c2nnc(-c3ccco3)o2)cc1 | – | inconclusive: 2 µM [rising, full curve, poor fit]
Cc1[nH]n(-c2cccc(Cl)c2)c(=O)c1C=NCC(C)C | inactive: 10.4% | –
CCOC(=O)CSc1nc2sc3c(c2c(=O)n1CC)CC(C)(C)OC3 | inactive: -5.49% | –
CCOc1cc(CN2CCCC(C(=O)c3cccc(C(F)(F)F)c3)C2)ccc1O (stereo not given) | inconclusive: -29.6% | –
COc1ccc(C(=O)Oc2ccc3ccc(=O)oc3c2)cc1 | inconclusive: 0.478% | –
COc1ccc(-c2ccnc3nc(-n4cccc4)nn23)cc1 | inconclusive: -2.07% | –
COc1ccc(CNC(=O)[C@@H](NC(=O)C2CCN(C(=O)[C@@H](N)CCSC)CC2)C(C)C)cc1 | inactive: -20.6% | –
C=CCN(CC=C)S(=O)(=O)c1ccc(NC(=S)NC(=O)c2ccco2)cc1 | inactive: 1.03% | –
Cn1c(=O)c(C#N)c(-c2ccccc2)n2cnnc12 | inconclusive: 5.3% | –
CN(C)CCN(C(=O)c1ccc(Br)s1)c1nc2cc3c(cc2s1)OCCO3 | – | inconclusive: 5.01 µM [falling, full curve]
COc1cc2c(c(OC)c1OC)-c1ccc(NC(=O)c3ccccc3)c(=O)cc1[C@@H](NC(C)=O)CC2 | – | active: 22.4 µM
CCNc1nc(SCCOc2ccc(Br)cc2)nc(N(C)C)n1 | inconclusive: 8.75% | –
COCC(=O)Nc1nc(-c2ccc(-c3ccccc3)cc2)cs1 | – | inconclusive: 31.6 µM [rising, single point]
CC1=C(C(=O)N2CCOCC2)C(c2ccc(Cl)cc2)NC(=S)N1 (stereo not given) | inconclusive: 16.9% | –
Cc1ccc(CNC(=O)CN2C(=O)NC(C)(c3cccc(Br)c3)C2=O)cc1 (stereo not given) | inconclusive: -0.777% | –
COc1ccc(Br)cc1/C=N/NC(=O)Cn1nnnc1N | – | inconclusive: 35.5 µM [falling, single point]
O=C(Nc1ccc(Cl)cc1)N1CCSC1=NCc1ccccc1 | inconclusive: 11.7% | –
NC(=O)C1CCN(C(=O)c2ccc(NS(=O)(=O)c3ccc(F)cc3)cc2)CC1 | inconclusive: 0.73% | –
CCOC(=O)c1cc2sccc2n1CC(=O)OC | inconclusive: 12.4% | –
COc1ccc2c(=O)c3c(=O)n(Cc4ccco4)c(-c4ccc(C)cc4)nc3oc2c1 | – | inconclusive: 3.66 µM [falling, full curve]
COC(=O)C1=C(C)NC(=O)/C1=C\c1cc(C)n(-c2c(C)cccc2C)c1C | – | inconclusive: 25.9 µM [rising, single point]
Cc1ccccc1C(=O)NNC(=S)NC(=O)c1cccs1 | – | inconclusive: 35.5 µM [rising, single point]
COc1ccc(S(=O)(=O)/N=C2/NC(=O)/C(=C\c3cc(OC)c(OC)cc3[N+](=O)[O-])S2)cc1 | – | inconclusive: 29.1 µM [falling, single point]
CCOC(=O)CCSc1nc(C)c2ccccc2n1 | – | inconclusive: 9.2 µM [rising, partial curve]

3 structures already listed, sorted by count of non-hydrogen atoms, smallest number first.
Structure (SMILES) | activity change, negative = inhibition | Potency
COc1ccc(Br)cc1/C=N/NC(=O)Cn1nnnc1N | – | inconclusive: 35.5 µM [falling, single point]
CCOC(=O)CSc1nc2sc3c(c2c(=O)n1CC)CC(C)(C)OC3 | inactive: -5.49% | –
Cc1ccc(CNC(=O)CN2C(=O)NC(C)(c3cccc(Br)c3)C2=O)cc1 (stereo not given) | inconclusive: -0.777% | –

Remaining list, next part

Structure (SMILES) | activity change, negative = inhibition | Potency
COc1cc(OC)c(NC(=O)C2CC(=O)N(c3ccc4c(c3)OCCO4)C2)cc1Cl (stereo not given) | inconclusive: -2.44% | –
COc1ccccc1N1CCN(CC(=O)c2ccc(F)cc2)CC1 | inconclusive: -0.336% | –
COc1ccc(N2CCN(Cc3cc(=O)c(OCC(=O)NC4CCCC4)co3)CC2)cc1 | inactive: -2.65% | –
O=[N+]([O-])c1cccc2ccc(/C=C/c3ccc(Cl)cc3)nc12 | inconclusive: 11.8% | –
Cc1[nH]ccc2c1[nH]c1cc(=O)ccc12 | inconclusive: 5.27% | –
O=C(O)CC1c2ccccc2CCN1S(=O)(=O)c1ccc(F)cc1 (stereo not given) | inactive: 3.45% | –
CCCCOC(=O)c1nc(Cl)c(Cl)c(N)c1Cl | inconclusive: 7.78% | –
CC(C)C(=O)NNc1nc2ccccc2s1 | inconclusive: 15.7% | –
CC(=O)Nc1ccc(Nc2ncnc3c2cnn3-c2ccccc2)cc1 | inconclusive: 0.895% | –
CC[C@@]1(C(=O)OC)N[C@H](CN(C)C(=O)COC)[C@@H]2C(=O)N(C)C(=O)[C@@H]21 | inactive: 1.08% | –
COc1ccc(/C=N/NC(=O)CN(CCc2ccccc2)S(=O)(=O)c2ccc(NC(C)=O)cc2)cc1OC | inconclusive: -14.4% | –
COc1ccc(OC)c(-c2oc3ccccc3c(=O)c2O)c1 | inactive: -13.9% | –
C/C(=N\Nc1ccc(C(=O)O)cc1)c1ccc(Br)cc1 | inconclusive: 165% | –
O=C(CSC(=S)N1CCCCC1)N1N=CCC1c1ccccc1 (stereo not given) | – | inconclusive: 0.366 µM [rising, full curve]
CCOC(=O)NC1(NC(C)C)Oc2ccccc2O1 | – | inconclusive: 18.4 µM [falling, single point]
C/C(N)=C(/C#N)C(=O)COC(=O)CCSc1ccccc1Cl | – | inconclusive: 2.31 µM [rising, partial curve, poor fit]
NC(=O)c1oc2ccccc2c1NC(=O)c1ccco1 | – | inconclusive: 18.4 µM [falling, single point]
Oc1[nH]c2ccc(Br)cc2c1N=NC(=S)Nc1ccc(F)cc1 | inconclusive: -3.62% | –
COc1cccc(CNC(=O)CCl)c1 | – | inconclusive: 20.6 µM [falling, single point]
COc1cc(/C=C2\SC(=S)N(NS(=O)(=O)c3ccccc3)C2=O)ccc1O | inconclusive: 7.27% | –
Cc1cccc(NC(=O)/C(C#N)=C\c2cc(C)n(-c3ccc(C(=O)O)cc3)c2C)c1 | inactive: -4.82% | –
CCOC(=O)C1CCCN(C(=O)CC(c2ccccc2)c2ccccc2)C1 (stereo not given) | inconclusive: -8.63% | –
O=C(N[C@@H](Cc1ccccc1)C(=O)OCc1ccccc1)c1nc[nH]c1C(=O)N1CCN(c2ccccc2)CC1 | – | inconclusive: 22.4 µM [falling, partial curve, poor fit]
CCOC(=O)CC(=O)Nc1ccc(Br)cc1C(=O)O | – | inconclusive: 35.5 µM [falling, partial curve, poor fit]
Cc1nc(NC(=O)/C=C/c2ccccc2)sc1C(=O)N1CCCCC1 | – | inconclusive: 20 µM [falling, partial curve]

From PubChem BioAssay AID493014 (National Center for Advancing Translational Sciences (NCATS), 2011)
